Experimental data taken from paper PMC8193582.
These are yes or no findings as the source states them, for the method shown. For some assays here: In cells and extracts the contact can be indirect. For some assays here: Tags and fused reporters may be left off the sequences shown. Some results given as binding are weak or reduced against the parent protein; the word gives no strength.

Chains of the proteins cited; added tags and fusions are not shown.
UniProt Q9ULV4: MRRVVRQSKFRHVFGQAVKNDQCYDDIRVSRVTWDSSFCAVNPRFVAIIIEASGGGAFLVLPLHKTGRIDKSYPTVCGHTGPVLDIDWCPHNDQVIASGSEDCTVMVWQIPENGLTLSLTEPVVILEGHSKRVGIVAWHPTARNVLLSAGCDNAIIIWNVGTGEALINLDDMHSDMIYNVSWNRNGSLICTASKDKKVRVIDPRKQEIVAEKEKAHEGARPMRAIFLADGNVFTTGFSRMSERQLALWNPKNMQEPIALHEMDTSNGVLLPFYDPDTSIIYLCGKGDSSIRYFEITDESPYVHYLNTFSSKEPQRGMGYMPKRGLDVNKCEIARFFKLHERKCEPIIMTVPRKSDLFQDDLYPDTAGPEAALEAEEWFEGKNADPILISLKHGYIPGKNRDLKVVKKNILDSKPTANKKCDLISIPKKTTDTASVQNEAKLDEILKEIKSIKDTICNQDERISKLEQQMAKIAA

Columns and labels:
[1] = molecular target: ARPC1B-TEV-STREP (recombinant) (human) (UniProt O15143); test: co-purification (Strep affinity, cation exchange, size exclusion); seven subunits co-expressed in Sf21 cells from three baculoviruses; captured by the double STREP tag on ARPC1A/ARPC1B (StrepTrap HP), then Mono S and Superose12; fractions containing all seven subunits pooled
[2] = molecular target: T1, GFP-tagged MICAL1 (human) (UniProt Q8TDZ2); test: co-IP; GFP-Trap agarose bead pulldown from lysates of HeLa cells stably expressing the GFP-tagged bait; cells treated with 200 nM Latrunculin A for 1 h; lysis buffer 50 mM Hepes pH 7.5, 150 mM NaCl, 1.5 mM MgCl2, 1 mM EGTA, 1% Triton X-100, 10% glycerol, 200 nM Latrunculin A; read by immunoblot
T1 sequence: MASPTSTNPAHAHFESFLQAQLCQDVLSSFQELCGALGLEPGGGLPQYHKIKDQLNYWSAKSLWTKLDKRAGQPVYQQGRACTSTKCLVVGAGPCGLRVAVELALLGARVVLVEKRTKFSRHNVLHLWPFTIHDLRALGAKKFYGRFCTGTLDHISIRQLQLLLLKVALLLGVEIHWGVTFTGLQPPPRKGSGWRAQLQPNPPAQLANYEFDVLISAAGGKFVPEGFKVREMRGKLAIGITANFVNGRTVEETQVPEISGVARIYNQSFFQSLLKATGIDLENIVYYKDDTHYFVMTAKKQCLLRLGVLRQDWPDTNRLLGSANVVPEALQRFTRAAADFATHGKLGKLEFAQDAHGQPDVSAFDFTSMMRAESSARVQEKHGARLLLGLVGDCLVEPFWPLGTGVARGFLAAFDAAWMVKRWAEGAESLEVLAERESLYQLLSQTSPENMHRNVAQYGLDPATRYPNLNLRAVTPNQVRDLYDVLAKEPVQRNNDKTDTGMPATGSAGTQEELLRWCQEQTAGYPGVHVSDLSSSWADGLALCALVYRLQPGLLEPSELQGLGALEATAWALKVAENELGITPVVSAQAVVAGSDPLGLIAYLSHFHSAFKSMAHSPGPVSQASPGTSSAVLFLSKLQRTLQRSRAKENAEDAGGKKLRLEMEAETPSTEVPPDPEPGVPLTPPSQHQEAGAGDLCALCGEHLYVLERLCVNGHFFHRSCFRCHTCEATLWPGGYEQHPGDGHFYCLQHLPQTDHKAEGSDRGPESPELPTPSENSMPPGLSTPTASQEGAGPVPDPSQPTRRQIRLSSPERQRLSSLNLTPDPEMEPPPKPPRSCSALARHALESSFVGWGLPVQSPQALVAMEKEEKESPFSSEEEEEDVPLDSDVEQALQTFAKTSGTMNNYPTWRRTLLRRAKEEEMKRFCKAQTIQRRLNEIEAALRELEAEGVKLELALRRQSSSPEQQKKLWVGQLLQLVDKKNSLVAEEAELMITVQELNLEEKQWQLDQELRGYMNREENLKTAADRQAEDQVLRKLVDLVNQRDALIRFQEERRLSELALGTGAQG

| binding [1] | binding [2] | Substance |
| --- | --- | --- |
| binds |  | ARPC5L (recombinant) (from UniProt Q9BPX5 1-153) |
|  | no binding | coronin 1C (endogenous) (from UniProt Q9ULV4 1-474) |
